These results are taken from patent US20130266515.

Chains of the proteins cited; added tags and fusions are not shown. Chains listed by the source or under a name are the forms on record and can include a tag or linker. Residues count along the entry.
UniProt P07355, 2-339: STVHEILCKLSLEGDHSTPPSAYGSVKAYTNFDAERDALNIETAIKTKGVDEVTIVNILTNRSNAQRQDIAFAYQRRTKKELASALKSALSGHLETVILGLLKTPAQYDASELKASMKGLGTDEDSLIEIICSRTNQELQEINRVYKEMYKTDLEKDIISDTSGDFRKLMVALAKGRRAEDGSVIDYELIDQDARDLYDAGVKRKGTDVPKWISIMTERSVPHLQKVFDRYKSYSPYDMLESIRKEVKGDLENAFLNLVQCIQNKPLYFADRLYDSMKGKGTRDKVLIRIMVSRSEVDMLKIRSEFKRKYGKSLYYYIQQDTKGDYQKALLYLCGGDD
annexin 2/S100A10 heterotetrameric complex (Bos taurus), one chain, as listed by the source, chain 1 of 2: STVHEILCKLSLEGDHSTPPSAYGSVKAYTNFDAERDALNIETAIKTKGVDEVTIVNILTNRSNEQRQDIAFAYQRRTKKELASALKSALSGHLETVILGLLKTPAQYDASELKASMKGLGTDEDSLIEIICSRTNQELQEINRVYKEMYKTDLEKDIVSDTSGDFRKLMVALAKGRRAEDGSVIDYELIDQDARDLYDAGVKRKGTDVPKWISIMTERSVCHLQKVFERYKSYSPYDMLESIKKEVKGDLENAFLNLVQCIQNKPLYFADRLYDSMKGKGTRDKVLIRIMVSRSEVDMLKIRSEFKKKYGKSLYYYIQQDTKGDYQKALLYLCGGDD
annexin 2/S100A10 heterotetrameric complex (Bos taurus), one chain, as listed by the source, chain 2 of 2: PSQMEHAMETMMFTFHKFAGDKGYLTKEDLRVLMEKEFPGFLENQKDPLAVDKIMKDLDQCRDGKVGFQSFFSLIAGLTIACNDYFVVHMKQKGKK

For series [1], the target named is annexin 2 (Homo sapiens) (UniProt P07355). The series can be described thus: competition with a labelled probe. The note with it: 2'-F pyrimidines; ER4 and ACE8 compete, suggesting annexin 2 is also the ER4 target; ER4 strong affinity for MCF-7 cells; protein on the cell surface.
In series [2] the test system is annexin 2/S100A10 heterotetrameric complex (Bos taurus). The series can be described thus: filter binding. The note with it: 2'-F pyrimidines; control sequence, same conditions; purified native protein; protein details: purified from bovine lung, Interchim A80109B; label: 32P or fluorescent.
Series [3] concerns the target annexin 2 (Homo sapiens) (UniProt P07355). The series can be described thus: binding assay. The note with it: 2'-F pyrimidines, 2'-OH purines; MCF-7 cells, radiolabeled cell binding, Scatchard; Cmax 484 pM; target assigned as annexin 2; protein on the cell surface.
For series [4] the target is unchanged. The series can be described thus: activity in cells. The note with it: 2'-F pyrimidines, 2'-OH purines; 5 uM ACE8 strongly inhibits HUVEC endothelial tube formation on Matrigel; target not directly verified in this assay; protein on the cell surface.

For some of these results: A weaker result is weaker than the reference pair of the same experiment. For some of these results: At least one result comes from cells or an extract, where the contact may be indirect. For some of these results: Construct, isoform or probe ends are uncertain for at least one entry.

Consider “GGGAGAUGAUCCGUUGAUGCGAGAGCUAGGCCGCAAGGUGCCUCAACGCCAUCUGAGUGCCGACCCGAUCGCAAGUCGUCGUUCGUAGGCAGAAUC [ER4]”, for which the binding result in series [1] is on record as “binds”.

Turning to “GGGAGAUGAUCCGUUGAUGCGAGGAUCCCUACGACCUCGUAGCACACACAUAGGUGCACUCACCCGGCUGACCAAGUCGUCGUUCGUAGGCAGAAUC [control sequence]”, the binding result in series [2] is reported as “binds more weakly”.

“GGGAGAUGAUCCGUUGAUGCGAGGGAACGCAAGAACUGAGGCCAUGAGGCGCCUUCCCUUGCUCAGGACGCAAGUCGUCGUUCGUAGGCAGAAUC [ACE8]” registered a Kd in series [3] of 4.9 nM. The “functional effect of the aptamer” value in series [4] is reported as “active”.

By Kd is commonly meant the free concentration of one partner at which half of the binding sites on the other are occupied at equilibrium, for simple one-to-one binding. A low value points to higher affinity.
